A short description of the assay: qHTS Assay to Find Inhibitors of Chronic Active B-Cell Receptor Signaling. Particulars: ABC-DLBCL IkBa-CBG/CBR reporter, luminescence ratio (green luciferase fused to IkBa over red control in TMD8 lymphoma cells), 4 h. The gist of the method: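 Cell line TMD8 (human ABC DLBCL), stably expressing tet-inducible CBG68-IkBa fusion and CBR; IMDM/0.5% FBS; cpd up to 46 uM; dox induction, 4 h, 37C/5% CO2; dual luminescence; green/red ratio; MG132 control.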
In general terms: qHTS replaces the single test concentration by a dilution series.

The mark [1] stands for this setting: measured here: CBR red luminescence, cell number.
[2] abbreviates: measured here: IkBa-CBG green luminescence.

As usually defined, the AC50 is the concentration giving half of the maximal activity seen.

The structures appear in SMILES notation. This is one part of the list. The main result of the screen is listed elsewhere. These columns were measured beside it and carry no call. The list favours compounds with an active or inconclusive main result. Words in brackets tell the shape of the fitted curve; partial curves, single points and poor fits give uncertain potencies.

Consider `Cc1ccc(-c2noc(C3CCCN(C(=O)c4ccc(C(C)(C)C)cc4)C3)n2)o1` (centres undefined), for which the AC50 under setting [1] was 6.31 µM [rising, single point].

For `CCn1c(CNc2ccccc2Cl)nnc1SCC(=O)NCc1ccccc1`, under setting [1], the AC50 is 17.8 µM [rising, partial curve, poor fit].

Consider `FC(F)(F)c1cccc(CN2CCC(c3cc(-c4cccs4)n[nH]3)CC2)c1`, for which the AC50 under setting [1] is 11.2 µM [rising, partial curve, poor fit] and the AC50 under setting [2] is 17.8 µM [falling, single point].

Take `CC(=O)Nc1ccc(S(=O)(=O)N2CCN(Cc3ccncc3)CC2)cc1`: under setting [1], the AC50 was 29.1 µM [rising, single point].

As for `CCOc1ccccc1CNS(=O)(=O)c1ccc(-c2cnc(C3CC3)o2)cc1`, the concentration at half-maximal activity (AC50) by setting is: under setting [1], 31.6 µM [rising, single point]; under setting [2], 12.6 µM [falling, partial curve].

Regarding `COc1ccc(-n2c(C)nc3c(cnn3-c3ccc(C)cc3)c2=O)cc1`, the AC50 under setting [1] is 12.6 µM [rising, partial curve, poor fit].

Take `CC(=O)N1CCC2(CC1)C/C(=N\NC(=S)Nc1ccccc1C)c1cc(O)ccc1O2`: the AC50 under setting [1] was 22.4 µM [falling, single point].

Turning to `CCc1c(C(=O)N/N=C/c2ccsc2)csc1C`, the AC50 under setting [1] was 2.59 µM [rising, full curve].

In the case of `CC(=O)c1c(C)[nH]c(C(=O)N2c3ccccc3CC2C)c1C` (centres undefined), under setting [1], the AC50 is 17.8 µM [rising, partial curve, poor fit].

As for `Cc1cc(=O)c(C(=O)Nc2cccc(C(=O)NC3CC3)c2)nn1-c1ccccc1Cl`, the AC50 under setting [1] was 7.31 µM [rising, partial curve, poor fit].

In the case of `CCOc1cc(C2CC(=O)Nc3cc(C)c(C)cc32)ccc1O` (centres undefined), under setting [1], the AC50 was 35.5 µM [falling, single point].

In the case of `CC1CCCC(C)N1S(=O)(=O)c1ccc(NC(=O)CNCC2CCCO2)cc1` (centres undefined), the AC50 under setting [1] was 3.55 µM [falling, partial curve, poor fit].

Take `Cc1ccsc1/C=N/NC(=O)c1ccco1`: under setting [1], the AC50 is 29.1 µM [falling, single point].

With `Cc1cc(C(=O)Cn2nc(C(=O)O)c3ccccc3c2=O)c(C)n1-c1ccc(OC(F)F)cc1`, the AC50 under setting [1] is 15.8 µM [falling, single point].

Consider `O=C(Nc1ccc(Cl)c(Cl)c1)N1CCSCC1`, for which the AC50 under setting [1] is 20.6 µM [falling, single point].

With `CCC(=O)c1ccc(N2CCN(S(=O)(=O)c3ccccc3)CC2)c(F)c1`, the AC50 under setting [1] is 1.41 µM [rising, full curve].

As for `Oc1ccc2ccccc2c1CNc1cnc2ccccc2c1`, the AC50 under setting [1] was 11.6 µM [falling, partial curve].
